This series in a line: Unmasking of the amine masked group (TCEP, methylamine, potassium carbonate), analysed by LC-MS. It is filed as physicochemical.

This note sets out measurements from US11505815B2, “Compositions and methods related to non-templated enzymatic nucleic acid synthesis” (Nuclera Nucleics Ltd., priority 2017, dated 2022).

The structures appear in SMILES notation.

In the case of `CC(=O)Nc1ncnc2c1ncn2[C@@H]1O[C@H](CO)[C@@H](O)[C@H]1O` [N6-acetyl A, N6-acetyl adenosine], under “aqueous 40% methylamine”, the “Conversion to the unmasked nucleoside by methylamine” value was “loss of the N6-acetyl A peak at 1.8 min and appearance of the A peak”. Besides, the “Conversion to the unmasked nucleoside by potassium carbonate” value (potassium carbonate (50 mM aqueous, room temperature where stated)) is on record as “afforded the deacetylated compound”.
